Reference: patent publication US20070078058A1, “Use of MCPP to inhibit tuber sprouting” (ACETO AGRICULTURAL CHEMICALS CORP., priority 2005, published 2007)

Assay: Concentration analysis: amounts recovered on the whole potato
Settings: approximately four months later
Excerpt: Much better results were obtained with the spray applications compared to the thermal fog applications of MCPP, believed to be due to the fact that we established a higher concentration on the tuber via spray.
For example, for spray and thermal fog application, amounts recovered on the whole potato approximately four months later were as follows: MCPP10 ppm applied via thermal fog=0.038 ppm MCPP10 ppm applied via liquid spray=6.3 ppm

Cc1cc(Cl)ccc1OC(C)C(=O)O (centres unmarked) [MCPP, 2-(4-Chloro-2-methylphenoxy)propanoic acid]
amount recovered on the whole potato (10 ppm applied via liquid spray): 6.3 ppm
amount recovered on the whole potato (10 ppm applied via thermal fog): 0.038 ppm
